PubChem BioAssay AID743121 | NCATS | 2013
In all, the deposit lists about 26,000 reagents; this is a random part of them. Of all reagents, 167 (0.63%) are marked active. 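Calls are per gene from RSA p-values that are not deposited; an individual active-marked siRNA can sensitise only weakly.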 Entries without a mark were called inactive. The numbers tell different reagents against one gene apart. Further read-outs or replicates are left out here.

Assay: 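Partners whose loss is lethal together with topoisomerase I blockade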 (primary screen)
Cells: MDA-MB-231 cells, a human breast cancer line
Reagents: single siRNA against human genes, 20 nM siRNA (0.8 pmol per well)
Time to read-out: 120 h (drug added 48 h after transfection, read 72 h later)
Challenge: camptothecin 20 nM (about EC30) for 72 h; vehicle 0.1% DMSO in parallel plates
Detection: 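Cell viability by ATP luminescence (CellTiter-Glo) as % of non-targeting siRNA wells, and the log2 ratio of viability without drug over viability with camptothecin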
Reading the numbers: log2 vehicle/camptothecin viability: higher = stronger sensitisation to camptothecin
Call rule: 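Active genes have an RSA gene-level p-value below 0.001, computed from the ratios of their separate siRNAs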

log2 vehicle/camptothecin viability, by gene knocked down and reagent
TNFRSF14: #1 0.131; #2 -0.0586; #3 0.144; #4 -0.176
SCN3B: #1 -0.322; #2 -0.264; #3 0.0549; #4 -0.119
RAB11A: #1 -0.206; #2 0.235; #3 -0.18; #4 -0.0889
UGP2: #1 -0.429; #2 -0.33; #3 -0.0738; #4 -0.58
PLA2R1: #1 -0.163; #2 -0.121; #3 0.123; #4 0.0845
NECTIN1: #1 -0.321; #2 -0.292; #3 0.0563; #4 -0.195
SYNGAP1: #1 -0.0521; #2 0.0187; #3 -0.172; #4 -0.359
RAD21: #1 0.0204; #2 -0.54; #3 -0.413
REV1: #1 -0.0958; #2 0.481; #3 0.0264
PPP2R1B: #1 1.86; #2 -0.382; #3 -0.153; #4 -0.493
USP50: #1 -0.0111; #2 -0.221; #3 -0.0687; #4 -0.0524
NEUROD6: #1 -0.448; #2 -0.407; #3 -0.365
RANBP9: #1 -0.227; #2 -0.631; #3 -0.309; #4 0.168
RNF150: #1 0.0191; #2 -0.0436; #3 -0.251; #4 -0.272
DCLRE1A: #1 0.366; #2 0.0977; #3 -0.26; #4 -0.0498
SIGLEC5: #1 0.185; #2 -0.0505; #3 -0.2; #4 0.322
CELA2A: #1 0.728; #2 -0.0444; #3 0.0745
GTF2B: #1 -0.0506; #2 -0.0917; #3 -0.292; #4 0.127
DOK5: #1 -0.168; #2 -0.469; #3 -0.019; #4 -0.0785
PRKD2: #1 0.0194; #2 0.394; #3 -0.377; #4 -0.624
ALAD: #1 -0.445; #2 -0.114; #3 0.112; #4 -0.257
ITGB7: #1 0.0312; #2 -0.13; #3 -0.276; #4 -0.371
PPRC1: #1 -0.478; #2 -0.296; #3 0.0415; #4 -0.393

Sorted by “log2 vehicle/camptothecin viability” (ascending): some entries from above
gene knocked down	siRNA no.	log2 vehicle/camptothecin viability
RANBP9	2	-0.631
PPP2R1B	4	-0.493
NEUROD6	1	-0.448
NEUROD6	2	-0.407
NEUROD6	3	-0.365
RANBP9	3	-0.309
RANBP9	1	-0.227
USP50	2	-0.221
USP50	3	-0.0687
USP50	4	-0.0524
USP50	1	-0.0111
